Binding data for one molecule are collected here from US20230340141A1.

Amino acid sequences for entries named in this document (tags omitted). A change or cut given only in a name is not applied to a line headed by its entry. Residues count along the entry.
UniProt P06127: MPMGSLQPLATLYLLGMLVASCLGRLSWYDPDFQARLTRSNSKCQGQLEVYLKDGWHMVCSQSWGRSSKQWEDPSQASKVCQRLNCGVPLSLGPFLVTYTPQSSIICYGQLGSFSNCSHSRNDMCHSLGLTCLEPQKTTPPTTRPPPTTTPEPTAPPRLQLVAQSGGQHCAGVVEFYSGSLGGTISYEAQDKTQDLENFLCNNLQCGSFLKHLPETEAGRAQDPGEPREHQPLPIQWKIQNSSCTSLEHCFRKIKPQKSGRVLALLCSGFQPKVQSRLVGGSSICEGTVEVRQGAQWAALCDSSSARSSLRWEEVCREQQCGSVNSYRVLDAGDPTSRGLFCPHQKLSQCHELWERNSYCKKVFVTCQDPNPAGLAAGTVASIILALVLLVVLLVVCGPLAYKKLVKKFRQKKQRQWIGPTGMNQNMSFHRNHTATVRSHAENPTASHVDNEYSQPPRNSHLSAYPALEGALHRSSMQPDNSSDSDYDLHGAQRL
CD5 on human T cells: residues 25-495 of P06127
recombinant human CD5: residues 25-372 of P06127

Results are given in words; binding and its absence hold for the method and conditions named. Some binding calls cover weakened binding; strength is not graded here.

The target of assay [1] is recombinant human CD5 (human) (UniProt P06127). Kind of assay: ELISA, plate-coated recombinant human CD5, HRP anti-human Fab detection, OD 450. In general terms: An ELISA detects its analyte on a solid surface through an enzyme-linked reagent.
For assay [2], the target named is CD5 on human T cells (human) (UniProt P06127). Put plainly: flow cytometry on human T cells.

B1: 9F2A11 anti-human CD5 monoclonal antibody (antibody, V domains shown)
VH: EVQLQESGAELVKPGASVKLSCTASGFNIKDSYMHWVKQRPEQGLEWIGRIDPANGDTQYDPKFQGKATITADTSSNTAYLQLSGLTSEDTAVYYCAREYRYAMDYWGQGTSVTVSS
VL: NIVLTQSPASLPVSLGQRATISCRASESVDSYGNSFMHWYQQKPGQPPKLLIYLASNLESGVPARFSGSGSRTDFILTIDPVEADDAATYYCQQNNEDPYTFGGGTKLEIK
As to B1, the binding result in assay [1] and in assay [2] was “binds” throughout.
